In the supplement of paper PMC10849652:
The list shows a part of the results.

Chains of the proteins cited; added tags and fusions are not shown. Lines headed by an entry give the natural chain unless they say otherwise; changes in a name come on top.
UniProt Q96A00: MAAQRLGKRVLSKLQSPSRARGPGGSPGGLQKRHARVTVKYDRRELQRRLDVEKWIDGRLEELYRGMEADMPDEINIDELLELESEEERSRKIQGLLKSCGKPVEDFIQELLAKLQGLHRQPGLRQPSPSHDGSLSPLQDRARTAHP
UniProt P36873, whole entry, looked up: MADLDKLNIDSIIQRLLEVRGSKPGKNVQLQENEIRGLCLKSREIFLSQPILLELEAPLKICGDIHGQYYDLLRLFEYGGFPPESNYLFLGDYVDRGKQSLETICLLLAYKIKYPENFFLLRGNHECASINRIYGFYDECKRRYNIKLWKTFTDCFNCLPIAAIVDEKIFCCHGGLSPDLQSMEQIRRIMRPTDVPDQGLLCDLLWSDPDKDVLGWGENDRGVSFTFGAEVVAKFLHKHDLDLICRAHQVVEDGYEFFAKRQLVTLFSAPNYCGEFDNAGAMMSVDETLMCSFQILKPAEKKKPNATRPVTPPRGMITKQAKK
UniProt Q9UMR5: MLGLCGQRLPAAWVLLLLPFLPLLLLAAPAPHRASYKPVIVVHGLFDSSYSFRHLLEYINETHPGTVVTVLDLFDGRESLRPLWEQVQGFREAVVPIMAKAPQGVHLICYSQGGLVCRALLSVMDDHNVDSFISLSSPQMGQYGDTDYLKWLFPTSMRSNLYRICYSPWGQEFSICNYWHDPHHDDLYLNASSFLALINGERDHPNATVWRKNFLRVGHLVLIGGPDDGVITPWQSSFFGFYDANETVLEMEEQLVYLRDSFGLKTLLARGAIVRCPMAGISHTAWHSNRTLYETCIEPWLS
UniProt O43663: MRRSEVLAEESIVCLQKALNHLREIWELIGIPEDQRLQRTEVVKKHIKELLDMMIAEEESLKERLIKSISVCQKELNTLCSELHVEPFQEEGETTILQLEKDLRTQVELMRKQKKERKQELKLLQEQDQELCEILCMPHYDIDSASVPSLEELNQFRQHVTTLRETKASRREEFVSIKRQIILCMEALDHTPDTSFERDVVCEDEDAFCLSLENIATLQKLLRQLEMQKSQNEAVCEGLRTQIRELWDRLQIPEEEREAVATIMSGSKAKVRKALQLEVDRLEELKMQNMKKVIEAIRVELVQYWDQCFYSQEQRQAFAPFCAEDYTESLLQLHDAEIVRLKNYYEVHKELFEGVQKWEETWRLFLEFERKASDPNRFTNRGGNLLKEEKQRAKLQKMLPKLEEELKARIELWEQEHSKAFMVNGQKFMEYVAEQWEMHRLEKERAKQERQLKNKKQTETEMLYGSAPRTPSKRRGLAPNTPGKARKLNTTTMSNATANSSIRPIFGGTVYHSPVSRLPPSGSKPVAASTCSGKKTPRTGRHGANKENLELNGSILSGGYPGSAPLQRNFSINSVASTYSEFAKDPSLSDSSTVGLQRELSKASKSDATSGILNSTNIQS
UniProt Q5THK1: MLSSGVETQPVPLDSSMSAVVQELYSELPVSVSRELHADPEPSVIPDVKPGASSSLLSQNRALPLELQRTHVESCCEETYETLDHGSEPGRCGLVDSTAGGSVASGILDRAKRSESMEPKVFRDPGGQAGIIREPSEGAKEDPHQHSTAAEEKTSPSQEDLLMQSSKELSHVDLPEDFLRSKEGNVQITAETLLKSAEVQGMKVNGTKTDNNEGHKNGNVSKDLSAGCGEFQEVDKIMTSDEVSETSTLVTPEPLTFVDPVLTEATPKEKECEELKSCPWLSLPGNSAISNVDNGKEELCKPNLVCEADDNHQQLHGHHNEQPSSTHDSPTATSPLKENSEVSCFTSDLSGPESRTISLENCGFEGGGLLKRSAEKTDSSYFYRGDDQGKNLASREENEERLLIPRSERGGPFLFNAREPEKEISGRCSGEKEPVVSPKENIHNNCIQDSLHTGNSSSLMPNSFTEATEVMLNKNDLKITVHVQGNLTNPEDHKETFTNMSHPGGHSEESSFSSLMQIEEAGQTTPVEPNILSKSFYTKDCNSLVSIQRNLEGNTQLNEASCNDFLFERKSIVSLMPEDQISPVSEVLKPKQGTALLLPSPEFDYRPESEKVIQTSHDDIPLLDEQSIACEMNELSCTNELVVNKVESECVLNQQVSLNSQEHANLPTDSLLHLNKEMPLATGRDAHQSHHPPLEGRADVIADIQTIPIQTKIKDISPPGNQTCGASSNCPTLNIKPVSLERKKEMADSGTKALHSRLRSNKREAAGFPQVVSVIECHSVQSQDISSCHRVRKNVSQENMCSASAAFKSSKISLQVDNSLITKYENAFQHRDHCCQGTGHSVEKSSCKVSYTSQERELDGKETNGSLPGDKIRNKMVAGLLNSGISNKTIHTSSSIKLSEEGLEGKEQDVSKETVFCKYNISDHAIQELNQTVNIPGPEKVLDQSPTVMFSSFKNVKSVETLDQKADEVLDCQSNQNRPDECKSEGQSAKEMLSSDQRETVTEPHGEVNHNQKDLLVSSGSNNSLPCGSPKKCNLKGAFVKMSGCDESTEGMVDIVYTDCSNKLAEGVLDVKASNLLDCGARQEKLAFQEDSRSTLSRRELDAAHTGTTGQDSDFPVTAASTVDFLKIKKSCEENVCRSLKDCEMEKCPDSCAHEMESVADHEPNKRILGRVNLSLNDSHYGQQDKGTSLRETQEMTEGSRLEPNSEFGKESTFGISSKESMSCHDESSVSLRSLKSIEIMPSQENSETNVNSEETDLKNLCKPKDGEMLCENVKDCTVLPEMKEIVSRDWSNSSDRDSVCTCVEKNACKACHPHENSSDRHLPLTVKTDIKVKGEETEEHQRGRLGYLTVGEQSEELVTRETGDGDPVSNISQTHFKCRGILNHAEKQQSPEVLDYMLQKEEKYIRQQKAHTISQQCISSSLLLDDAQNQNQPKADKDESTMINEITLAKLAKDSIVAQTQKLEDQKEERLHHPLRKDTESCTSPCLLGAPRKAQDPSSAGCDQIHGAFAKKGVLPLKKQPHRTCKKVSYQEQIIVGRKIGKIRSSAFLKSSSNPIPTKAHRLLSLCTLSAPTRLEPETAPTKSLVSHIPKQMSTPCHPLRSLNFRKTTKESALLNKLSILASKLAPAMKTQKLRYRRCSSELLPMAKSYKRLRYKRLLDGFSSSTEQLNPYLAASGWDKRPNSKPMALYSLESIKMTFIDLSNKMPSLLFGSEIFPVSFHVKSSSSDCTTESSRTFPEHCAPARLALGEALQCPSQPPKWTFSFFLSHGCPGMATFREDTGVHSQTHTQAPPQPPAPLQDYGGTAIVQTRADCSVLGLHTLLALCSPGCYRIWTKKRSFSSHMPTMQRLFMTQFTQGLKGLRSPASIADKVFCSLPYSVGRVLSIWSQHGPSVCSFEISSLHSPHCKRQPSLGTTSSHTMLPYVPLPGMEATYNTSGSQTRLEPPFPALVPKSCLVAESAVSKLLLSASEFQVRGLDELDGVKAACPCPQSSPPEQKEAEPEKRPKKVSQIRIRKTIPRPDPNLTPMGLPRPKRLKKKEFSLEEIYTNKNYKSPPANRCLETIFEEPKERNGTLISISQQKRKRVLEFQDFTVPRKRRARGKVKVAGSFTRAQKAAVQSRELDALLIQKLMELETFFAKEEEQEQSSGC
UniProt Q9BSG0: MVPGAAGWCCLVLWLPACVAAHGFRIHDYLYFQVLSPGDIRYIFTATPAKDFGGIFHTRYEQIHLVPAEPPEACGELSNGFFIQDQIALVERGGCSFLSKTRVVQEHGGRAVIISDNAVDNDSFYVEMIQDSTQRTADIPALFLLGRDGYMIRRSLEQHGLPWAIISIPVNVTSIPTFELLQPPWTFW
UniProt O94906: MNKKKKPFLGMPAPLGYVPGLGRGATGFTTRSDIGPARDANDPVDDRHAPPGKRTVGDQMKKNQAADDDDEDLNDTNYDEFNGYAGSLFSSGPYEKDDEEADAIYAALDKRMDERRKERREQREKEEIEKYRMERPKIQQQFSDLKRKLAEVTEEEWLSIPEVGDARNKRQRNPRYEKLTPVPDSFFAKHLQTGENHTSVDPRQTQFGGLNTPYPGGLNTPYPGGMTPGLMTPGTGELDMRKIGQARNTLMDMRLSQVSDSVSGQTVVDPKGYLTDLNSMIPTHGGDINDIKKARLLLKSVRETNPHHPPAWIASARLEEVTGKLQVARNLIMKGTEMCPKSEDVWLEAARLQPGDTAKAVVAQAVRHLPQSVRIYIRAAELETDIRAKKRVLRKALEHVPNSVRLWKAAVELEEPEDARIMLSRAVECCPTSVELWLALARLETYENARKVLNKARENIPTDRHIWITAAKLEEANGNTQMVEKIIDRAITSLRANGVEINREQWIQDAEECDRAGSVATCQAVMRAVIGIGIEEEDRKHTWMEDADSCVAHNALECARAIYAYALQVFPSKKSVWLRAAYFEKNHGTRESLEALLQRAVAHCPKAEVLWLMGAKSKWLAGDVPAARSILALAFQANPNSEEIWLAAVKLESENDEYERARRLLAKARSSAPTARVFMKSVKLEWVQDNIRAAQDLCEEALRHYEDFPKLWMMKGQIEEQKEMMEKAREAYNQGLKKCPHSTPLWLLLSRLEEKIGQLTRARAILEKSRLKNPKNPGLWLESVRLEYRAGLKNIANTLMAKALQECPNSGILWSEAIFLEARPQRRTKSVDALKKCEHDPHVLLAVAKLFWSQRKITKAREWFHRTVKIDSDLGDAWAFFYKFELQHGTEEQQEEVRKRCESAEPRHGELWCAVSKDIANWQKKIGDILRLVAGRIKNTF
UniProt Q9Y255: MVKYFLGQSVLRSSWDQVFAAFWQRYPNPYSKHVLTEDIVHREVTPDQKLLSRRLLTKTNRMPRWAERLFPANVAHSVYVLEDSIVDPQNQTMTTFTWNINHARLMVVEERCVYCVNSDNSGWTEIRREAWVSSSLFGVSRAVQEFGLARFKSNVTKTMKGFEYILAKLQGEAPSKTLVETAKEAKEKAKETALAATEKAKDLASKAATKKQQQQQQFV
UniProt P14314: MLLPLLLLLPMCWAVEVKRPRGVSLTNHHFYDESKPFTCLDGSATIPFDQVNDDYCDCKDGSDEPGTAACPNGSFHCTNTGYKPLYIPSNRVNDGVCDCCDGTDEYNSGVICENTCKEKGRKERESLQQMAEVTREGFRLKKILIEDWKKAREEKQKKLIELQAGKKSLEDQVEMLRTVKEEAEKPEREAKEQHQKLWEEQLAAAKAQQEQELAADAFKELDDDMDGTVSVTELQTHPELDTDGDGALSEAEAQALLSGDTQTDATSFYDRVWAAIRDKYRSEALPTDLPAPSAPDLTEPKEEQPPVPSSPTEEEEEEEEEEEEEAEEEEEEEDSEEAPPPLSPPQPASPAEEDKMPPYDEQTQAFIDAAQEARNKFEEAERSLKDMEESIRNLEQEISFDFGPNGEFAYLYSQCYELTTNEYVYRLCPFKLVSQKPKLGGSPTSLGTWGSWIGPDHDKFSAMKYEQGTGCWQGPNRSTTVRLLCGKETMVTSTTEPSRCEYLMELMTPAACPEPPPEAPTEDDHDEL
UniProt Q9ULJ8: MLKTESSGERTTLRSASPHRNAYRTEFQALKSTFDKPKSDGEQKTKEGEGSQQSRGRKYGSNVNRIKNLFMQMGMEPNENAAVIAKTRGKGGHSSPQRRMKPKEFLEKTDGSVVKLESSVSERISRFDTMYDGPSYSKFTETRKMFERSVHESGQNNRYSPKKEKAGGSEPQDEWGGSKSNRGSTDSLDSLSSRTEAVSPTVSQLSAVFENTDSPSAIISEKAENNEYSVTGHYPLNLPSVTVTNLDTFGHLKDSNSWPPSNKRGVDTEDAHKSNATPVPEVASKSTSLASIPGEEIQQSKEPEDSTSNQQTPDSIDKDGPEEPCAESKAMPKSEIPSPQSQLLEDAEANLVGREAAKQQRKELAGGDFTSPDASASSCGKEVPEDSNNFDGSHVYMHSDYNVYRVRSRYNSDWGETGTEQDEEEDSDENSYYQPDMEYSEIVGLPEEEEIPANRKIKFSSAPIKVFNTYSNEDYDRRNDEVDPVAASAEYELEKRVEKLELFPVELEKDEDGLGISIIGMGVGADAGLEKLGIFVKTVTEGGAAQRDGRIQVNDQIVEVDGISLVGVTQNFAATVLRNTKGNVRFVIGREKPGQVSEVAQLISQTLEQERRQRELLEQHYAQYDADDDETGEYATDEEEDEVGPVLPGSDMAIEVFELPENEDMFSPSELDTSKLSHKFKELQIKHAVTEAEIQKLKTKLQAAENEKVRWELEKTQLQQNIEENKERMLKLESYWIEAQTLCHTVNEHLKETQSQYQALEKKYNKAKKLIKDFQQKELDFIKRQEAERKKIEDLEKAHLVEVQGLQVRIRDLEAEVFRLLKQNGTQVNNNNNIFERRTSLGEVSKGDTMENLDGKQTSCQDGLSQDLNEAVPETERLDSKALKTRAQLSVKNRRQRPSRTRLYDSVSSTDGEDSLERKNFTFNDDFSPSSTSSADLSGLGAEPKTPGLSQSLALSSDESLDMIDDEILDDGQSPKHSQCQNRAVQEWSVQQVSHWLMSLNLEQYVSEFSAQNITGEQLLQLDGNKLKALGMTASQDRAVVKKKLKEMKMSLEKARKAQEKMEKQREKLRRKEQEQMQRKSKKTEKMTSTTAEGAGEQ

Tests used:
Experiment in all cases: log2 fold change, soluble protein after heating vs DMSO (PISA); higher = thermal stabilisation; K562 cells, 10 uM, 30 min; active = over 0.2 and 3.5 SD of the protein, either way, in both replicates (recomputed)
[1] = compound: C1=CC=C(C=C1)[C@H](COC2=CC3=C(C=C2)NC(=O)N3)NC(=O)C4=CC=CN(C4=O)CC5=CC(=C(C=C5)F)F
Summary of the method: (§1)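 Aliquots of K562 cells (2×10^6 cells/mL) treated with 10 μM compound for 30 min were heated for 3 min over 48°C-58°C. After pooling and extraction in PBS with 0.5% NP-40 at 4°C, soluble protein from a 21,000xg, 90 min spin was quantified by TMTpro 16plex LC-MS/MS with channel sums equalised. Thermal stability is expressed against control samples, from duplicates, as a log2 fold change.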

[2] = compound: CC1=C(SC2=C1C(=N[C@H](C3=NN=C(N32)C)CC(=O)N)C4=CC=C(C=C4)Cl)C
Summary of the method: as §1

[3] = compound: CC1=C2C(=CC=C1)N=C(N(C2=O)C3=CC=CC=C3C)CN4C=NC5=C(N=CN=C54)N
Summary of the method: as §1

[4] = compound: Cc1sc2c(c1C)C(c1ccc(Cl)cc1)=N[C@@H](CC(=O)OC(C)(C)C)c1nnc(C)n1-2
Summary of the method: as §1

[5] = compound: c1ccc([C@@H]2C[C@H]2NC2CCNCC2)cc1
Summary of the method: as §1

Measured: log2 fold change

PPP1R14A (UniProt Q96A00)
inactive: [1] 0.011 | [2] 0.009 | [3] -0.002 | [4] 0.061 | [5] -0.013

PRKAA1 isoform 2 (UniProt Q13131)
inactive: [1] 0.001 | [2] 0.085 | [3] 0.024 | [4] 0.004 | [5] 0.019

PPM1G (UniProt O15355)
inactive: [1] -0.139 | [2] 0.025 | [3] 0.081 | [4] 0.002 | [5] -0.089

PRKCA (UniProt P17252)
inactive: [1] -0.035 | [2] 0.124 | [3] 0.14 | [4] 0.002 | [5] -0.038

PRMT1 (UniProt Q99873)
inactive: [1] -0.034 | [2] 0.087 | [3] -0.006 | [4] -0.013 | [5] -0.022

PPP2R5C isoform 4 (UniProt Q13362)
inactive: [1] -0.03 | [2] -0.003 | [3] 0.117 | [4] -0.019 | [5] 0.012

PRMT6 (UniProt Q96LA8)
inactive: [1] -0.011 | [2] 0.035 | [3] 0.077 | [4] -0.244 | [5] -0.159

PPP4R2 (UniProt Q9NY27)
inactive: [1] 0.001 | [2] 0.064 | [3] -0.015 | [4] 0.029 | [5] 0.015

PPP3CA (UniProt Q08209)
inactive: [1] -0.032 | [2] 0.009 | [3] -0.105 | [4] -0.049 | [5] -0.027

PPM1E (UniProt Q8WY54)
inactive: [1] -0.019 | [2] 0.186 | [3] 0.024 | [4] 0.022 | [5] -0.176

PRIM1 (UniProt P49642)
inactive: [1] -0.149 | [2] -0.033 | [3] 0.053 | [4] 0.033 | [5] 0.01

PPP1CC isoform 2 (UniProt P36873)
inactive: [1] -0.046 | [2] -0.025 | [3] 0.028 | [4] -0.031 | [5] 0.012

PRKACB isoform 2 (UniProt P22694)
inactive: [1] -0.06 | [2] 0.021 | [3] 0.032 | [4] -0.038 | [5] 0.003

PRPF4 (UniProt O43172)
inactive: [1] -0.028 | [2] 0.01 | [3] 0.034 | [4] -0.02 | [5] -0.01

PPT2 isoform 3 (UniProt Q9UMR5)
inactive: [1] 0.015 | [2] -0.062 | [3] -0.011 | [4] -0.053 | [5] 0.03

PPP1R8 (UniProt Q12972)
inactive: [1] 0.006 | [2] 0.073 | [3] 0 | [4] -0.025 | [5] 0.023

PPP2R2D (UniProt Q66LE6)
inactive: [1] -0.085 | [2] 0.048 | [3] 0.057 | [4] 0.113 | [5] 0.048

PPP3R1 (UniProt P63098)
inactive: [1] 0.041 | [2] 0.057 | [3] 0.048 | [4] -0.013 | [5] -0.021

PRKRA (UniProt O75569)
inactive: [1] 0.067 | [2] -0.246 | [3] -0.25 | [4] 0.226 | [5] 0.047

PPP2R1A (UniProt P30153)
inactive: [1] 0.001 | [2] 0.052 | [3] 0.024 | [4] -0.025 | [5] -0.016

PRPSAP2 (UniProt O60256)
inactive: [1] 0.009 | [2] -0.026 | [3] -0.027 | [4] -0.012 | [5] 0

PRPS2 isoform 2 (UniProt P11908)
inactive: [1] 0.014 | [2] 0.008 | [3] -0.029 | [4] -0.028 | [5] 0.018

PRRC2A (UniProt P48634)
inactive: [1] 0.067 | [2] -0.084 | [3] -0.057 | [4] 0.072 | [5] 0.023

PROSER1 (UniProt Q86XN7)
inactive: [4] 0.138

PROSER3, A0A2R8Y8D9
inactive: [2] -0.022 | [4] -0.115 | [5] -0.108

PPP1R12C (UniProt Q9BZL4)
inactive: [1] -0.16 | [3] 0.05 | [4] 0.053

Two neighbouring entries from above:
PPP1CC isoform 2 (UniProt P36873)
inactive: [1] -0.046 | [2] -0.025 | [3] 0.028 | [4] -0.031 | [5] 0.012

PRKACB isoform 2 (UniProt P22694)
inactive: [1] -0.06 | [2] 0.021 | [3] 0.032 | [4] -0.038 | [5] 0.003

Later entries

PRDM2 (UniProt Q13029)
inactive: [2] -0.149 | [3] -0.427 | [4] 0.073 | [5] 0.001

PROSER3 (UniProt Q2NL68)
inactive: [1] 0.134 | [2] -0.1 | [4] -0.043 | [5] 0

PPTC7 (UniProt Q8NI37)
inactive: [3] 0.1

PPP1R18 (UniProt Q6NYC8)
inactive: [1] -0.048 | [2] 0.005 | [3] 0.039 | [4] 0.017 | [5] -0.046

PRG2 (UniProt P13727)
inactive: [2] 0.01 | [3] 0.037 | [4] 0.118 | [5] 0.074

PRELID3B (UniProt Q9Y3B1)
inactive: [4] 0.336

PRPF4B (UniProt Q13523)
inactive: [1] 0.118 | [2] -0.098 | [3] 0 | [4] 0.109 | [5] 0.168

PRR3 (UniProt P79522)
inactive: [4] 0.306

PPP1R10 (UniProt Q96QC0)
inactive: [1] 0.087 | [2] -0.189 | [3] -0.177 | [4] 0.086 | [5] 0.026

PPP2R3C (UniProt Q969Q6)
inactive: [4] 0.122

Retrieved one by one from the list above, 3 records:
PRG2 (UniProt P13727)
inactive: [2] 0.01 | [3] 0.037 | [4] 0.118 | [5] 0.074

PRR3 (UniProt P79522)
inactive: [4] 0.306

PRPF4B (UniProt Q13523)
inactive: [1] 0.118 | [2] -0.098 | [3] 0 | [4] 0.109 | [5] 0.168

Additional records follow.

PPP1R21 (UniProt Q6ZMI0)
inactive: [1] 0.076 | [2] 0.066 | [3] 0.133 | [5] 0.089

PRC1 (UniProt O43663)
inactive: [2] -0.057 | [4] -0.036 | [5] 0.041

PPP2CA (UniProt P67775)
inactive: [1] -0.056 | [2] 0.059 | [3] 0.007 | [4] -0.028 | [5] 0.016

PPP6R3 isoform 5 (UniProt Q5H9R7)
inactive: [1] 0.008 | [2] 0.045 | [3] 0.022 | [4] -0.01 | [5] -0.013

PRR14L (UniProt Q5THK1)
inactive: [2] -0.052 | [3] 0.312 | [4] 0.042 | [5] 0.103

PPP2R1B isoform 2 (UniProt P30154)
inactive: [1] -0.075 | [2] -0.006 | [3] 0.043 | [4] 0.022 | [5] -0.045

PRRC2C isoform 7 (UniProt Q9Y520)
inactive: [1] 0.058 | [2] -0.156 | [3] -0.115 | [4] 0.106 | [5] 0.033

PRPF39 (UniProt Q86UA1)
inactive: [2] -0.101 | [4] 0.185 | [5] 0.144

PPP1R7 (UniProt Q15435)
inactive: [1] -0.017 | [2] 0.066 | [3] 0.017 | [4] -0.042 | [5] -0.038

PRADC1 (UniProt Q9BSG0)
inactive: [2] -0.154 | [3] 0 | [4] -0.097 | [5] -0.087

PRDX5 (UniProt P30044)
inactive: [1] 0.03 | [2] 0.039 | [3] 0.042 | [4] -0.015 | [5] 0.012

PPP3CB isoform 4 (UniProt P16298)
inactive: [1] -0.051 | [2] 0.031 | [3] 0.047 | [4] -0.012 | [5] -0.03

PRMT5 (UniProt O14744)
inactive: [1] -0.031 | [2] 0.022 | [3] 0.021 | [4] 0.004 | [5] -0.043

PPP1R13L (UniProt Q8WUF5)
inactive: [1] -0.271 | [3] -0.023 | [4] -0.051

PPP2R1B (UniProt H0YDG7)
inactive: [1] 0.085 | [2] 0.165 | [4] 0.135 | [5] 0.07

PRSS2 (UniProt P07478)
inactive: [1] 0.023 | [2] -0.033 | [3] 0.07 | [4] 0.044 | [5] 0.04

PRPF6 (UniProt O94906)
inactive: [1] -0.286 | [4] 0.184

PPP2R5B (UniProt Q15173)
inactive: [1] -0.058 | [3] -0.098

PPP2R3B (UniProt Q9Y5P8)
inactive: [3] 0.13 | [4] -0.01

PRELID1 (UniProt Q9Y255)
inactive: [1] 0.108 | [3] 0.025 | [4] 0.034

PPP1R3D (UniProt O95685)
inactive: [1] -0.101 | [2] 0.044 | [4] -0.105 | [5] -0.04

PRCC (UniProt Q92733)
inactive: [1] 0.051 | [2] 0.006 | [3] 0.016 | [4] 0.024 | [5] 0.067

PRKD3 (UniProt O94806)
inactive: [1] -0.103 | [2] 0.044 | [3] -0.007 | [5] -0.097

PRKCSH isoform 2 (UniProt P14314)
inactive: [1] -0.01 | [2] 0.024 | [3] -0.138 | [4] -0.012 | [5] 0.044

PRIMPOL (UniProt Q96LW4)
inactive: [2] 0.183 | [4] -0.049 | [5] 0.012

PPP1R9A isoform 3 (UniProt Q9ULJ8)
inactive: [1] 0.176 | [3] -0.049
